The values that follow come from publication PMC5460901.

In assay [1] the target is T1, Receptor-transporting protein RTP2, Flag-tagged (UniProt Q80ZI2).
T1 sequence: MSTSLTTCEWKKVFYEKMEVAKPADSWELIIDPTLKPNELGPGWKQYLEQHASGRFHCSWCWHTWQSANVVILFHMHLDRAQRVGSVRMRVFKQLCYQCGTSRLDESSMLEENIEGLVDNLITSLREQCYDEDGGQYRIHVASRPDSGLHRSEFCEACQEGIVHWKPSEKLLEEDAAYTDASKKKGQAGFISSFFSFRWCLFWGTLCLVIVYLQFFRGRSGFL
The assay can be described thus: co-IP; HEK293T cells co-transfected; lysis in 50 mM Tris pH 7.4, 150 mM NaCl, 1% NP-40; lysate on anti-Flag M2 affinity gel overnight at 4 °C; HA-tagged proteins detected by anti-HA blot.

Assay [2] deals with Receptor-transporting protein RTP1S, HA-tagged. In words: co-IP; HEK293T cells co-transfected; lysis in 50 mM Tris pH 7.4, 150 mM NaCl, 1% NP-40; lysate on anti-HA affinity matrix overnight at 4 °C; Flag-tagged proteins detected by anti-Flag blot.

These are yes or no findings as the source states them, for the method shown. In cells and extracts the contact can be indirect. A result given as binding can be weak or reduced; the word gives no strength. Tags and fused reporters may be left off the sequences shown.

For “Receptor-transporting protein RTP1S, HA-tagged”, in assay [1], the binding result was “binds”.

B1: Receptor-transporting protein RTP2, Flag-tagged (protein, UniProt Q80ZI2 1-223)
chain: MSTSLTTCEWKKVFYEKMEVAKPADSWELIIDPTLKPNELGPGWKQYLEQHASGRFHCSWCWHTWQSANVVILFHMHLDRAQRVGSVRMRVFKQLCYQCGTSRLDESSMLEENIEGLVDNLITSLREQCYDEDGGQYRIHVASRPDSGLHRSEFCEACQEGIVHWKPSEKLLEEDAAYTDASKKKGQAGFISSFFSFRWCLFWGTLCLVIVYLQFFRGRSGFL
As for B1, the binding result in assay [2] is “binds”.
